{"source": "PubChem BioAssay AID1259254, NCATS, 2017", "aim": "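Finding genes that stop cells copying their DNA twice in one cycle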 (primary screen)", "cells": "human HCT116 colorectal cancer cells", "reagent": "single siRNA against human genes", "timing": "3 days", "measured": "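Nuclei stained with Hoechst and imaged; cell-cycle phase assigned by DNA content; G2 share scaled per plate, non-targeting siRNA 0%, GMNN siRNA 100%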", "reading the numbers": "G2 robust z-score: higher = more G2 cells, more excess DNA replication", "active means": "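An siRNA counts as active if its G2 robust z-score lies at least 5 MADs above the screen median; here such calls match roughly 38% of GMNN control or more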", "note": "The whole screen tested about 59,000 reagents; below is a part drawn at random. Over the whole deposit, about 1,550 (2.6%) are marked active. 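G2 share is only a proxy for re-replication; each gene was hit by three separate siRNAs, and active genes were retested.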 Reagents against one gene are numbered here. Further read-outs or replicates are left out here. The record does not give: the amount of reagent."}
{"gene":"PPP1R12A (protein phosphatase 1 regulatory subunit 12A)","reagent":1,"G2 robust z-score":1.42,"call":"inactive"}
{"gene":"PPP1R12A (protein phosphatase 1 regulatory subunit 12A)","reagent":2,"G2 robust z-score":2.55,"call":"inactive"}
{"gene":"PPP1R12A (protein phosphatase 1 regulatory subunit 12A)","reagent":3,"G2 robust z-score":4.62,"call":"inactive"}
{"gene":"TOMM34 (translocase of outer mitochondrial membrane 34)","reagent":1,"G2 robust z-score":-1.09,"call":"inactive"}
{"gene":"TOMM34 (translocase of outer mitochondrial membrane 34)","reagent":2,"G2 robust z-score":5.03,"call":"active"}
{"gene":"TOMM34 (translocase of outer mitochondrial membrane 34)","reagent":3,"G2 robust z-score":-0.763,"call":"inactive"}
{"gene":"TENM2 (teneurin transmembrane protein 2)","reagent":1,"G2 robust z-score":0.771,"call":"inactive"}
{"gene":"TENM2 (teneurin transmembrane protein 2)","reagent":2,"G2 robust z-score":-0.368,"call":"inactive"}
{"gene":"TENM2 (teneurin transmembrane protein 2)","reagent":3,"G2 robust z-score":-0.261,"call":"inactive"}
{"gene":"SLC22A6","reagent":1,"G2 robust z-score":2.03,"call":"inactive"}
{"gene":"SLC22A6","reagent":2,"G2 robust z-score":5.35,"call":"active"}
{"gene":"SLC22A6","reagent":3,"G2 robust z-score":-1.18,"call":"inactive"}
{"gene":"FAM156B (family with sequence similarity 156 member B)","reagent":1,"G2 robust z-score":-0.247,"call":"inactive"}
{"gene":"FAM156B (family with sequence similarity 156 member B)","reagent":2,"G2 robust z-score":0.0673,"call":"inactive"}
{"gene":"FAM156B (family with sequence similarity 156 member B)","reagent":3,"G2 robust z-score":0.624,"call":"inactive"}
{"gene":"KMT2E (lysine methyltransferase 2E (inactive))","reagent":1,"G2 robust z-score":2.06,"call":"inactive"}
{"gene":"KMT2E (lysine methyltransferase 2E (inactive))","reagent":2,"G2 robust z-score":4.52,"call":"inactive"}
{"gene":"KMT2E (lysine methyltransferase 2E (inactive))","reagent":3,"G2 robust z-score":-0.633,"call":"inactive"}

Called active (from the list above):
{"gene":"TOMM34 (translocase of outer mitochondrial membrane 34)","reagent":2,"G2 robust z-score":5.03,"call":"active"}
{"gene":"SLC22A6","reagent":2,"G2 robust z-score":5.35,"call":"active"}
